In paper PMC9110524:
These are yes or no findings as the source states them, for the method shown. Binding seen in cells or lysates may run through a third protein. Binding calls can cover weak binding; strength is not graded here.

Molecular target: T1, nephrin (wild-type, human cDNA) (human) (UniProt O60500)
T1 sequence: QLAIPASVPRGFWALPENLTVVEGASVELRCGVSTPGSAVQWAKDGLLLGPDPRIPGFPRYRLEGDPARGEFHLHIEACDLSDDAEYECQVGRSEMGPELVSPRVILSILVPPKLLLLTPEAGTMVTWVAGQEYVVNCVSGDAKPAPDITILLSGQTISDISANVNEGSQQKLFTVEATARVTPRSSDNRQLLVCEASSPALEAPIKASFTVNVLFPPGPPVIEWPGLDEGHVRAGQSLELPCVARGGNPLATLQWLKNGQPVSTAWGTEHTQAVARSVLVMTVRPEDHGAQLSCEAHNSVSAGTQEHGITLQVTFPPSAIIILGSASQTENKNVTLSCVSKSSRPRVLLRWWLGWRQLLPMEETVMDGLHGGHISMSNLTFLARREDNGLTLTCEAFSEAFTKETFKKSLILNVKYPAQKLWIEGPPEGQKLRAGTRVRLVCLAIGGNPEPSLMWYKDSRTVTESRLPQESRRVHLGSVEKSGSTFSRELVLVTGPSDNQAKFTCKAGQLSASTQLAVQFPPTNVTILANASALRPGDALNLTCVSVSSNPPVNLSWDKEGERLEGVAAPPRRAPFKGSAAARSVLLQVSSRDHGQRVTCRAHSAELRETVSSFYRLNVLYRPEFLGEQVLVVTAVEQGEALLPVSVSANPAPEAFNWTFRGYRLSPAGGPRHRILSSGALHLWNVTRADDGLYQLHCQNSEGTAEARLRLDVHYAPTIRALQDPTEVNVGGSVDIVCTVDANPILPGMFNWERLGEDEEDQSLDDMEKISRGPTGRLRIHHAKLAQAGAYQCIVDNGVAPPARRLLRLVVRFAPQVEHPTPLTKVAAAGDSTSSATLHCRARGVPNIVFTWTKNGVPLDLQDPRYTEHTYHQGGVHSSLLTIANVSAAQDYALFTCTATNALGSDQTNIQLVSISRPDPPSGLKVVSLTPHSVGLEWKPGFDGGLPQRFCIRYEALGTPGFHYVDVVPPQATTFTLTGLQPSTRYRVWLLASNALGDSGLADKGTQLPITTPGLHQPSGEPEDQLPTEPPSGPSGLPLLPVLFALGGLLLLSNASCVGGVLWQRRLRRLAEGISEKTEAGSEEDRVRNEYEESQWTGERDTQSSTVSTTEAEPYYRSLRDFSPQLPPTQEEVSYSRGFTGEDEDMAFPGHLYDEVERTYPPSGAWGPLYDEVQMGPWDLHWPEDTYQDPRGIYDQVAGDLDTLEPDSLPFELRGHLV
Assay: co-IP; HEK293T transfected with vector or nephrin; cells kept under normal (5.5 mM) or high (30 mM) glucose for 24 h; 1% Triton X-100 lysis buffer; nephrin immobilised, p38 MAPK detected by p38 antibody staining

- binding: binds
Substance: p38 mitogen-activated protein kinase (human (endogenous in HEK293T)) (enzyme)
